In one assay the target is T1, Flag-USP53 (UniProt Q70EK8).
T1 sequence: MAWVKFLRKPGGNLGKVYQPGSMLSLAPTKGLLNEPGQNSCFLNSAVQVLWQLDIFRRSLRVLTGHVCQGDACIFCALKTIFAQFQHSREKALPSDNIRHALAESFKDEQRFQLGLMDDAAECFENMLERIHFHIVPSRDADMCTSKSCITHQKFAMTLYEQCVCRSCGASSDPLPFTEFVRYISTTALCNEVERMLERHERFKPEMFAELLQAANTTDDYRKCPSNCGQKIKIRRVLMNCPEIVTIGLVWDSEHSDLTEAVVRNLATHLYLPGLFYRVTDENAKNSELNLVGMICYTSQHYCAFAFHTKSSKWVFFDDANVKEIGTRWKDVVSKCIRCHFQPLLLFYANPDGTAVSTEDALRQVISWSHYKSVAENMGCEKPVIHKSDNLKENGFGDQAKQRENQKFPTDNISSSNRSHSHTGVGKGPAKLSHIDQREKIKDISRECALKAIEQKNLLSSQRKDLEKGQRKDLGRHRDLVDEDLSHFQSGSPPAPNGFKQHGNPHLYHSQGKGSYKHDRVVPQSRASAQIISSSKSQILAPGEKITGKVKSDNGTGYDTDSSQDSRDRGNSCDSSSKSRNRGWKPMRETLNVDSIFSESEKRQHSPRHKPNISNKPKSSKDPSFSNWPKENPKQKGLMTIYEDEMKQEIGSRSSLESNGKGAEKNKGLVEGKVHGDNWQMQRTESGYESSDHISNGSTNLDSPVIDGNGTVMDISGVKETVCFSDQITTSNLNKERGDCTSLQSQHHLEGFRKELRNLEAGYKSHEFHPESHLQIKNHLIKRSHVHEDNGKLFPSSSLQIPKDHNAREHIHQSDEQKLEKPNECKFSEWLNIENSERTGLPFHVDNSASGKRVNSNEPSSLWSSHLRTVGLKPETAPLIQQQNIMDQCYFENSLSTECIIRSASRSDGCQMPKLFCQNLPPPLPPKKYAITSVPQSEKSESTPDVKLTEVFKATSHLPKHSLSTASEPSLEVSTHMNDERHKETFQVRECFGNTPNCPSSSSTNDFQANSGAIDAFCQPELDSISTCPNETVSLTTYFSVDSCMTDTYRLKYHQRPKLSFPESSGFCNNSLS
As to the kind of experiment: co-IP; HEK-293T cells cotransfected with Flag-USP53 and HA-RIPK1 or its truncation mutants; anti-Flag IP, Western blotting.

Assay [1] has as its target RIPK1, endogenous in primary rat cardiomyocytes (rat (endogenous in primary cardiomyocytes)). As to the kind of experiment: co-IP; endogenous proteins in primary rat cardiomyocytes with or without EtOH; NP-40 lysis buffer, Protein A/G magnetic beads, overnight at 4 °C.

No constants are given. Whether binding was seen depends on the method and setting. Binding seen in cells or lysates may run through a third protein. Binding can be weak; no strength is given. For part of these data: Sequences can lack the tags named with a protein.

Drawing on publication PMC12352791, this text covers binding for three molecules.

With “HA-RIPK1-ID (intermediate domain) (human) (domain or fragment)”, the binding result with Flag-USP53 is reported as “binds”.

With “HA-RIPK1-ΔID (intermediate domain-depleted RIPK1) (human) (domain or fragment)”, in the assay with Flag-USP53, the binding result was “no binding”.

B1: USP53, endogenous in primary rat cardiomyocytes (protein, UniProt D3ZYY9 1-1082)
chain: MAWVKFLRKPSGNLGKAYPAGSLLSLAPTVGLLNEPGQNSCFLNSAVQVLWQLDIFRRSLRVLTGHICQGDACIFCALKTIFAQFQHSREKALPSDNIRHALAESFKDEQRFQLGLMDDAAECFENILARIHFHLAPNRDADMCTSKSCVTHQKFAMTLYEQCVCRSCGASSDPLPFTEFVRYISTTALCNEVERMMERHERFKPEMFADLLQAANTADDYRKCPSNCGQKIKIRRVLMNCPEIVTIGLVWDSEHSDLTEDVVRSLATHLYLPGLFYRVTDENAVDSELHLVGMICYTSRHYCAFAFHTKSSKWVFFDDALVKEIGTRWKDVVSKCIRCHLQPLLLFYANPDGTAVSTEDALKQVVHWSHYKSVEENMGCEKPIIYKPDNLKENGFGGQIKQKENHKFQGDNISSFNRSQVQTSGRRAPVKLSHDQREKIKDISRECALKAMEQKNALSSQRKELEKGQRKDTGRHRDVVDEDLSSFKSASPPASDGFRQQGNPHLYHSQGKGPCKHDRAASESSSSGKVMSSSRSQNPLVPGEKTTGKAKSDSGTGYDTDSSQDSRDKGGSYGSRTKSRHRGWKPMRETLNVDSVFSESEKRQHSPRRKSDIGNRPKCSKDQSCNNWPKANPKRKGLMTIYEDEMKQEAGSRSSHETNGKGAEKNTGAAESRGPGSSWQMQRTESGYESSDHVSNGSASLDSPGIDGSGAVMDVGGGKAFSEQIKMNSPNTDSVECVSHQSKDLPEGFRKDLQDLEADDKSYELHPESHVQIKNHLIKRSQIGETNDKLFPSASSQTPAREYVYQTNEQKGEKPDRTKCSEWRNTEISEGMGLPFHVDESSVAGKRVNSNETVSPSSLSSSVRTAGLKAETGPVIFWPQQNITEQGYSENSLSRELTRQSACNADSCQMPKLHCHRSPPPLPPKKYSTTSVPRLERAGFIPDVRLPEAFNTNFSSLPKHSLSTASGPSSEGSAYMTQEKDKETIQVKHQAANSCPSSCSTGGFQANSKALVNMFCEPDQDSRSMCPSETVSLTTYFSVDSCMTDTYRLKYHQRPKLCFPESSGHCSDKSLSQTEQVEGSIT
As for B1, the binding entry in assay [1] is given as “binds”.
